Results are given in words; binding and its absence hold for the method and conditions named. Blank lines part the entries; values can stand above or below the binder they belong to.
Assays:
[1] = target: MAG1–5 I473E glycosylated (mouse) (UniProt P20917); experiment: AUC; sedimentation equilibrium, SEC buffer (150 mM NaCl, 20 mM HEPES pH 7.5), 20 °C, 7,500, 14,000 and 20,000 r.p.m., global analysis of several concentrations, speeds and wavelengths; monomer to dimer; both purified
[2] = target: MAG1–5 I473E glycosylated (mouse) (UniProt P20917); experiment: SAXS; ESRF BM29, SEC buffer (150 mM NaCl, 20 mM HEPES pH 7.5), 20 °C (277 K for deglycosylated MAG1–5 N406Q), single concentration of 33-52 μM for each sample; monomer to dimer; both purified
[3] = target: MAG1–5 I473E deglycosylated (mouse) (UniProt P20917); experiment: as above
[4] = target: MAG1–3 glycosylated (three N-terminal Ig domains of mouse MAG) (mouse) (UniProt P20917); experiment: AUC; sedimentation equilibrium, SEC buffer (150 mM NaCl, 20 mM HEPES pH 7.5), 20 °C, 7,500, 14,000 and 20,000 r.p.m., global analysis of several concentrations, speeds and wavelengths; monomer to dimer; both purified
[5] = target: MAG1–3 glycosylated (three N-terminal Ig domains of mouse MAG) (mouse) (UniProt P20917); experiment: SAXS; ESRF BM29, SEC buffer (150 mM NaCl, 20 mM HEPES pH 7.5), 20 °C (277 K for deglycosylated MAG1–5 N406Q), single concentration of 33-52 μM for each sample; monomer to dimer; both purified
[6] = target: MAG1–3 deglycosylated (mouse) (UniProt P20917); experiment: as above

binding [2]: no binding (tested: 46.2 μM)
B1: MAG1–5 I473E glycosylated (domain or fragment, UniProt P20917 20-508)
chain: GHWGAWMPSTISAFEGTCVSIPCRFDFPDELRPAVVHGVWYFNSPYPKNYPPVVFKSRTQVVHESFQGRSRLLGDLGLRNCTLLLSTLSPELGGKYYFRGDLGGYNQYTFSEHSVLDIVNTPNIVVPPEVVAGTEVEVSCMVPDNCPELRPELSWLGHEGLGEPTVLGRLREDEGTWVQVSLLHFVPTREANGHRLGCQAAFPNTTLQFEGYASLDVKYPPVIVEMNSSVEAIEGSHVSLLCGADSNPPPLLTWMRDGMVLREAVAKSLYLDLEEVTPGEDGVYACLAENAYGQDNRTVELSVMYAPWKPTVNGTVVAVEGETVSILCSTQSNPDPILTIFKEKQILATVIYESQLQLELPAVTPEDDGEYWCVAENQYGQRATAFNLSVEFAPIILLESHCAAARDTVQCLCVVKSNPEPSVAFELPSRNVTVNETEREFVYSERSGLLLTSELTIRGQAQAPPRVICTSRNLYGTQSLELPFQGAHR
modifications: N-linked glycans (made in GnTI- cells)
binding [1]: no binding (tested: 3.6, 8.3, 41.4 and 102.8 μM)

binding [3]: no binding (tested: 45.1 μM)
B2: MAG1–5 I473E deglycosylated (domain or fragment, UniProt P20917 20-508)
chain: B1 chain
modifications: N-linked glycans trimmed down to single N-Acetylglucosamines by Endo-Hf

binding [5]: no binding (tested: 43.7 μM)
B3: MAG1–3 glycosylated (three N-terminal Ig domains of mouse MAG) (domain or fragment, UniProt P20917 20-325)
chain: GHWGAWMPSTISAFEGTCVSIPCRFDFPDELRPAVVHGVWYFNSPYPKNYPPVVFKSRTQVVHESFQGRSRLLGDLGLRNCTLLLSTLSPELGGKYYFRGDLGGYNQYTFSEHSVLDIVNTPNIVVPPEVVAGTEVEVSCMVPDNCPELRPELSWLGHEGLGEPTVLGRLREDEGTWVQVSLLHFVPTREANGHRLGCQAAFPNTTLQFEGYASLDVKYPPVIVEMNSSVEAIEGSHVSLLCGADSNPPPLLTWMRDGMVLREAVAKSLYLDLEEVTPGEDGVYACLAENAYGQDNRTVELSVMYA
modifications: N-linked glycans (made in GnTI- cells); C-mannosylation on W22
binding [4]: no binding (tested: 7.2, 57.4 and 332 μM)

binding [6]: no binding (tested: 38.2 μM)
B4: MAG1–3 deglycosylated (domain or fragment, UniProt P20917 20-325)
chain: B3 chain
modifications: N-linked glycans trimmed down to single N-Acetylglucosamines by Endo-Hf

From PMC5150538, “Structural basis of myelin-associated glycoprotein adhesion and signalling” (Nature Communications, 2016)
